Paper PMC8747035, “Design, Synthesis, and Biological Evaluation of 5,6,7,8-Tetrahydrobenzo[4,5]thieno[2,3-d]pyrimidines as Microtubule Targeting Agents” (Molecules, 2022)
Read-outs that look alike come from different tables or passages of the source.

Columns and labels:
MDA-MB-435 cells = experiment: Antiproliferative SRB assay in MDA-MB-435 cells; assay type: cell-based, human; details: for fold decrease in potency compared to 8: vs 8, antiproliferative and microtubule depolymerizing effects; for fold less potent than 4, antiproliferative effects: vs 4
Procedure: (§1) We investigated the microtubule depolymerization and the antiproliferative activities of compounds 4–14 (Table 2). […] We next evaluated the importance of the 4′-OMe group of compound 4 by replacing it with an isosteric 4′-SMe (5). […] Clearly, this further substantiated the importance of an S in the scaffold over an NH.
(§2) The antiproliferative and cytotoxic effects of the compounds in cancer cells were evaluated using the SRB assay as previously described. MDA-MB-435 cells were obtained from the Lombardi Cancer Center of Georgetown University (Washington, DC, USA). SK-OV-3 and HeLa cells were purchased from ATCC. Details about the generation of the SK-OV-3 MDR1-M6/6 and HeLa WTβIII cells were described previously. The IC50 values represent an average of three independent experiments, each conducted using triplicate points.
(§3) HeLa, A-10, SK-OV-3, and SK-OV-3 MDR1-M6/6 cells were grown in Basal Medium Eagle (Sigma-Aldrich, St. Louis, MO, USA) supplemented with 10% FBS (Hyclone, GE Life Sciences, Logan, UT, USA) 1% GlutaMAX (Gibco, Life Technologies, Waltham, MA, USA) and 50 µg/mL gentamycin (Life Technologies, USA). HeLa WTβIII cells were grown in Dulbecco’s Modified Eagle Medium (Life Technologies) supplemented with 10% FBS and 50 µg/mL gentamycin. MDA-MB-435 cells were maintained in Improved Minimum Essential Medium (Life Technologies) supplemented with 10% FBS and 25 µg/mL gentamycin. All cells were grown at 37 °C in a humidified environment with 5% CO2.

A-10 cells [1] = experiment: Cellular microtubule depolymerization in A-10 cells (immunofluorescence); assay type: cell-based; details: EC50 in A-10 cells / IC50 in MDA-435 cells
Procedure: as §1
The effects of the compounds on cellular microtubules were evaluated in A-10 cells using indirect immunofluorescence microscopy. These cells were obtained from the American Type Culture Collection (ATCC) (Manassas, VA, USA). Cells were treated with the compounds of interest for 18 h, and the cells fixed with cold MeOH and microtubule structures were visualized using a β-tubulin antibody (Sigma-Aldrich, St. Louis, MO, USA). The concentration that caused loss of 50% of the interphase microtubules was defined as the EC50 and calculated as previously described. These values represent an average of at least three independent experiments.

Bovine brain tubulin = experiment: Inhibition of purified tubulin assembly (turbidity); assay type: biochemical; details: for fold more potent than standard CA-4, tubulin assembly: vs CA-4
Procedure: Bovine brain tubulin was purified as described previously. The tubulin assembly assay has been described in detail. Briefly, 1.0 mg/mL of tubulin (10 µM) was preincubated for 15 min at 30 °C in 0.8 M monosodium glutamate (pH of 2 M stock solution adjusted to 6.6 with HCl), varying compound concentrations and 4% (v/v) DMSO as compound solvent. After the preincubation, the reaction mixtures were placed on ice and 0.4 mM GTP was added. The reaction mixtures were transferred to cuvettes at 0 °C in a recording spectrophotometer equipped with an electronic temperature controller. After baselines were established, the temperature was elevated over about 30 s to 30 °C, and changes in turbidity were monitored at 350 nm for 20 min. The compound concentration that caused a 50% reduction in increase in turbidity, interpolated from the values obtained with defined compound concentrations, was defined as the IC50 value. The assay to measure inhibition of [^3H]colchicine binding was described in detail previously. Briefly, 0.1 mg/mL (1.0 µM) tubulin was incubated at 37 °C with 5.0 µM [3H]colchicine and potential inhibitors at 5.0 µM. Incubation was for 10 min, at which point the reaction had reached 40–60% of the maximum colchicine that can be bound in reaction mixtures without inhibitor. The [^3H]colchicine was a product of PerkinElmer, USA. CA-4 was a generous gift of Dr. G. R. Pettit, Arizona State University.

HeLa cells = experiment: SRB assay in HeLa cells; assay type: cell-based
Procedure: (§4) Compounds 4–8, 10, 12, and 13 were evaluated for their abilities to overcome βIII-tubulin mediated drug resistance using an isogenic HeLa cell line pair (Table 4). […] The Rr values (Table 4) were calculated by dividing the IC50 of the βIII-tubulin expressing line by the IC50 obtained in the parental HeLa cells.
as §2, §3

HeLa WTβIII cells [2] = experiment: SRB assay in βIII-tubulin expressing HeLa WTβIII cells; assay type: cell-based; details: IC50 of βIII-tubulin expressing line / IC50 in parental HeLa
Procedure: as §4, §2, §3

A-10 cells [3] = details: EC50 in A-10 cells / IC50 in MDA-435 cells; cited from earlier work
HeLa WTβIII cells [4] = details: cited from earlier work
SK-OV-3 MDR1-M6/6 cells = details: cited from earlier work
[5] = test system: NCI-60 cancer cell line panel; experiment: NCI-60 cancer cell line panel (overall); assay type: cell-based, Human
Excerpt: Compound 4 had better potency than the lead compound 1 in 50 cancer cell lines. (better by 5 to 6-fold in leukemia, 2 to 17-fold in NSCLC, 2 to 6-fold in colon cancer, 2 to 5-fold in CNS cancer, 2 to 25-fold in melanoma, 2 to 5-fold in ovarian cancer, 2 to 9-fold in renal cancer, 2 to 5-fold in prostate cancer, and 2 to 6-fold in breast cancer compared to lead compound 1).

COc1ccc(N(C)c2ncnc3sc4c(c23)CCCC4)cc1 [Compound 7, N-(4-methoxyphenyl)-N-methyl-5,6,7,8-tetrahydrobenzo[4,5]thieno[2,3-d]pyrimidin-4-amine]
fold more potent than compound 3, antiproliferative effects (MDA-MB-435 cells; vs 3): 3.5 fold | EC50/IC50 Ratio (A-10 cells [1]): 1.2 | fold more potent than lead compound 3 as inhibitor of tubulin assembly (Bovine brain tubulin; vs 3): 5 fold | fold more potent than standard CA-4, tubulin assembly (Bovine brain tubulin): 2 fold | fold higher potency than lead compound 3 in HeLa and HeLa WT βIII cell lines (HeLa cells; vs 3): 2 fold | Rr Value (WT β3/HeLa) (HeLa WTβIII cells [2]): 0.7

CC(=O)O[C@H]1C(=O)[C@@]2(C)[C@H]([C@H](OC(=O)c3ccccc3)[C@]3(O)C[C@H](OC(=O)[C@H](O)[C@@H](NC(=O)c4ccccc4)c4ccccc4)C(C)=C1C3(C)C)[C@]1(OC(C)=O)CO[C@@H]1C[C@@H]2O [Paclitaxel, paclitaxel, reference compound]
Rr Value (WT β3/HeLa) (HeLa WTβIII cells [2]): 8.6

COc1ccc2c(c1)CCCN2c1nc(C)nc2sc3c(c12)CCCC3 [Compound 12, 4-(6-Methoxy-3,4-dihydroquinolin-1(2H)-yl)-2-methyl-5,6,7,8-tetrahydrobenzo[4,5]thieno[2,3-d]pyrimidine]
fold decrease in potency compared to 8 (MDA-MB-435 cells): 2.3–3 fold | EC50/IC50 Ratio (A-10 cells [1]): 1.2 | Rr Value (WT β3/HeLa) (HeLa WTβIII cells [2]): 1.1

CSc1ccc(N(C)c2nc(C)nc3sc4c(c23)CCCC4)cc1 [Compound 10, N,2-dimethyl-N-(4-(methylthio)phenyl)-5,6,7,8-tetrahydrobenzo[4,5]thieno[2,3-d]pyrimidin-4-amine]
fold lower potency than 5 in both assays (MDA-MB-435 cells; vs 5, microtubule depolymerization and antiproliferative assays): 2 fold | EC50/IC50 Ratio (A-10 cells [1]): 1.8 | fold more potent than standard CA-4, tubulin assembly (Bovine brain tubulin): 2 fold | Rr Value (WT β3/HeLa) (HeLa WTβIII cells [2]): 0.7

CSc1ccc(N(C)c2nc(N)nc3[nH]c4ccccc4c23)cc1 [Compound 2]
EC50/IC50 Ratio (A-10 cells [3]): 12 | Rr Value (WT β3/HeLa) (HeLa WTβIII cells [4]): 0.7 | Rr Value (M6/6/SK-OV-3) (SK-OV-3 MDR1-M6/6 cells): 1

COc1ccc2c(c1)CCCN2c1nc(N)nc2sc3c(c12)CCCC3 [Compound 6, 4-(6-Methoxy-3,4-dihydroquinolin-1(2H)-yl)-5,6,7,8-tetrahydrobenzo[4,5]thieno[2,3-d]-pyrimidin-2-amine]
fold less potent than 4, antiproliferative effects (MDA-MB-435 cells): 6 fold | EC50/IC50 Ratio (A-10 cells [1]): 2.0 | Rr Value (WT β3/HeLa) (HeLa WTβIII cells [2]): 0.7

COc1ccc(N(C)c2nc(C)nc3sc4c(c23)CCCC4)cc1 [Compound 8, N-(4-methoxyphenyl)-N,2-dimethyl-5,6,7,8-tetrahydrobenzo[4,5]thieno[2,3-d]pyrimidin-4-amine]
fold less potent than 4, antiproliferative effects (MDA-MB-435 cells): 5.8 fold | EC50/IC50 Ratio (A-10 cells [1]): 1.0 | fold more potent than standard CA-4, tubulin assembly (Bovine brain tubulin): 2 fold | Rr Value (WT β3/HeLa) (HeLa WTβIII cells [2]): 0.9

COc1cccc2cc(N(C)c3nc(C)nc4sc5c(c34)CCCC5)ccc12 [Compound 13, N-(5-methoxynaphthalen-2-yl)-N,2-dimethyl-5,6,7,8-tetrahydrobenzo[4,5]thieno[2,3-d]pyrimidin-4-amine]
fold decrease in potency compared to 8 (MDA-MB-435 cells): 1.5- to 2 fold | EC50/IC50 Ratio (A-10 cells [1]): 1.5 | Rr Value (WT β3/HeLa) (HeLa WTβIII cells [2]): 0.8

CSc1ccc(N(C)c2nc(N)nc3sc4c(c23)CCCC4)cc1 [Compound 5, N4-methyl-N4-(4-(methylthio)phenyl)-5,6,7,8-tetrahydrobenzo[4,5]thieno[2,3-d] pyrimidine-2,4-diamine]
fold more potent than 2, antiproliferative effects (MDA-MB-435 cells; vs 2): 2.3 fold | EC50/IC50 Ratio (A-10 cells [1]): 1.8 | fold more potent than lead compound 2 as inhibitor of tubulin assembly (Bovine brain tubulin; vs 2): 5 fold | fold more potent than standard CA-4, tubulin assembly (Bovine brain tubulin): 2 fold | fold higher potency than lead compound 2 in HeLa and HeLa WT βIII cell lines (HeLa cells; vs 2): 2 fold | Rr Value (WT β3/HeLa) (HeLa WTβIII cells [2]): 0.7

COc1ccc(N(C)c2nc(N)nc3sc4c(c23)CCCC4)cc1 [Compound 4, N4-(4-methoxyphenyl)-N4-methyl-5,6,7,8-tetrahydrobenzo[4,5]thieno[2,3-d]pyrimidine-2,4-diamine]
fold more potent than lead compound 1, cell proliferation (MDA-MB-435 cells; vs 1): 1.6 fold | EC50/IC50 Ratio (A-10 cells [1]): 2.2 | fold more potent than lead 1 as inhibitor of tubulin assembly (Bovine brain tubulin; vs 1): 2 fold | fold higher potency than lead compound 1 in HeLa and HeLa WT βIII cell lines (HeLa cells; vs 1): 1.6 fold | Rr Value (WT β3/HeLa) (HeLa WTβIII cells [2]): 0.8 | fold better potency than lead compound 1, NCI-60 ([5]; CNS cancer): 2 to 5 fold | fold better potency than lead compound 1, NCI-60 ([5]; NSCLC): 2 to 17 fold | fold better potency than lead compound 1, NCI-60 ([5]; breast cancer): 2 to 6 fold | fold better potency than lead compound 1, NCI-60 ([5]; colon cancer): 2 to 6 fold | fold better potency than lead compound 1, NCI-60 ([5]; leukemia): 5 to 6 fold | fold better potency than lead compound 1, NCI-60 ([5]; melanoma): 2 to 25 fold | fold better potency than lead compound 1, NCI-60 ([5]; ovarian cancer): 2 to 5 fold | fold better potency than lead compound 1, NCI-60 ([5]; prostate cancer): 2 to 5 fold | fold better potency than lead compound 1, NCI-60 ([5]; renal cancer): 2 to 9 fold | fold more potent than previously published lead, NCI-60 ([5]; whole panel, maximum): up to 25 fold

COc1ccc(N(C)c2ncnc3[nH]c4ccccc4c23)cc1 [Compound 3]
EC50/IC50 Ratio (A-10 cells [3]): 9.2 | Rr Value (WT β3/HeLa) (HeLa WTβIII cells [4]): 0.8 | Rr Value (M6/6/SK-OV-3) (SK-OV-3 MDR1-M6/6 cells): 1.4
